This is one part of the list. Single values are uncertain, as repeats are few or missing.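 Cells were imaged in 1,536-well plates, and nuclei stained with an antibody against cleaved PARP were counted against all DNA-stained nuclei to give the apoptosis fraction. Screening doses were chosen to leave most cells alive, and resting and induced cleaved-PARP levels differ strongly between cell lines.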
Assays:
Experiment in all cases: cleaved PARP positive nuclei fraction relative to DMSO control; melanoma cells; higher = more apoptosis
Settings in all cases: library dose: low library concentration; 72 h
501Mel = tested on: 501Mel
A101D = tested on: A101D
A2058 = tested on: A2058
C32 = tested on: C32
CBRC008 = tested on: CBRC008 (line from a melanoma biopsy)
CBRC014 = tested on: CBRC014 (line from a melanoma biopsy)
CBRC016 = tested on: CBRC016 (line from a melanoma biopsy)
CBRC017 = tested on: CBRC017 (line from a melanoma biopsy)
COLO792 = tested on: COLO792
COLO800 = tested on: COLO800
COLO829 = tested on: COLO829
G361 = tested on: G361
IPC-298 = tested on: IPC-298
IST-MEL1 = tested on: IST-MEL1
LB2518-MEL = tested on: LB2518-MEL
LOXIMVI = tested on: LOXIMVI
A375 = tested on: A375
CBRC013 = tested on: CBRC013 (line from a melanoma biopsy)
MEL-HO = tested on: MEL-HO

SMILES	cleaved PARP positive nuclei fraction (501Mel)	cleaved PARP positive nuclei fraction (A101D)	cleaved PARP positive nuclei fraction (A2058)	cleaved PARP positive nuclei fraction (C32)	cleaved PARP positive nuclei fraction (CBRC008)	cleaved PARP positive nuclei fraction (CBRC014)	cleaved PARP positive nuclei fraction (CBRC016)	cleaved PARP positive nuclei fraction (CBRC017)	cleaved PARP positive nuclei fraction (COLO792)	cleaved PARP positive nuclei fraction (COLO800)	cleaved PARP positive nuclei fraction (COLO829)	cleaved PARP positive nuclei fraction (G361)	cleaved PARP positive nuclei fraction (IPC-298)	cleaved PARP positive nuclei fraction (IST-MEL1)	cleaved PARP positive nuclei fraction (LB2518-MEL)	cleaved PARP positive nuclei fraction (LOXIMVI)	cleaved PARP positive nuclei fraction (A375)	cleaved PARP positive nuclei fraction (CBRC013)	cleaved PARP positive nuclei fraction (MEL-HO)
C=CCNC1=C2C[C@@H](C)C[C@H](OC)[C@H](O)[C@@H](C)/C=C(\C)[C@H](OC(N)=O)[C@@H](OC)/C=C\C=C(/C)C(=O)NC(=CC1=O)C2=O [Tanespimycin] + COC(=O)c1sccc1S(=O)(=O)Nc1ccc(Nc2ccccc2)cc1OC [GSK0660] (first compound 0.002 µM, partner dose 1 µM)	34.8%	23.8%	53.9%	34.9%	58.1%	88.7%	53.2%	63.2%	62.9%	75.7%	87.2%	113%	69.8%	146%	31.3%	87.4%			
OCc1c[nH]c2ccccc12 [Indole-3-carbinol] + CCN(CC)CCCCNc1ncc2cc(-c3cc(OC)cc(OC)c3)c(NC(=O)NC(C)(C)C)nc2n1 [PD173074] (first compound 0.8 µM, partner dose 0.1 µM)	186%	33.4%	174%	75.5%	82.5%	81.9%	95%	99.8%	63.8%	42.8%	111%	37.7%	86.2%	173%	85.6%	113%			
OCc1c[nH]c2ccccc12 [Indole-3-carbinol] + Oc1nc(-c2ccc(C(F)(F)F)cc2)nc2c1CSCC2 [XAV939] (first compound 0.8 µM, partner dose 2 µM)	58.1%	21.9%	184%	123%	51.9%	84.4%	97.5%	68%	63.9%	51.5%	63%	57.1%	46.5%	183%	145%	162%			
C=CCNC1=C2C[C@@H](C)C[C@H](OC)[C@H](O)[C@@H](C)/C=C(\C)[C@H](OC(N)=O)[C@@H](OC)/C=C\C=C(/C)C(=O)NC(=CC1=O)C2=O [Tanespimycin] + COc1cc(N2CCC(N3CCN(C)CC3)CC2)ccc1Nc1ncc(Cl)c(Nc2ccccc2S(=O)(=O)C(C)C)n1 [NVP-TAE684] (first compound 0.002 µM, partner dose 0.08 µM)	56.2%	13.5%	60.4%	52.9%	104%	121%	38.1%	104%	88.1%	124%	58.1%	81.3%	59.9%	85.6%	66.7%	86.4%			
C=CCNC1=C2C[C@@H](C)C[C@H](OC)[C@H](O)[C@@H](C)/C=C(\C)[C@H](OC(N)=O)[C@@H](OC)/C=C\C=C(/C)C(=O)NC(=CC1=O)C2=O [Tanespimycin] + O=C1NC(=O)/C(=C/c2ccc(-c3ccc(F)cc3O)o2)S1 [AS252424] (first compound 0.002 µM, partner dose 1 µM)	85.9%	13.9%	52.9%	328%	153%	96.2%	21.4%	84.4%	132%	140%	80.2%	102%	91.3%	98%	70.9%	151%			
Clc1ccc(Nc2nnc(Cc3ccncc3)c3ccccc23)cc1 [vatalanib] + Cc1cc([N+](=O)[O-])ccc1NS(=O)(=O)c1cc(Cl)ccc1Cl [FH535] (first compound 2 µM, partner dose 1 µM)	80.7%	65.7%	22.9%	129%	156%	145%	455%	244%	90.7%	54.6%	161%	220%	31.8%	102%	94.9%	256%			
C=CCNC1=C2C[C@@H](C)C[C@H](OC)[C@H](O)[C@@H](C)/C=C(\C)[C@H](OC(N)=O)[C@@H](OC)/C=C\C=C(/C)C(=O)NC(=CC1=O)C2=O [Tanespimycin] + Cn1cc(/C=C2\C(=O)Nc3cccnc32)c2ccccc21 [GW441756] (first compound 0.002 µM, partner dose 0.4 µM)	76.8%	14%	93.4%	137%	299%	98%	74.1%	71.8%	94.3%	340%	72.5%	138%	139%	59.7%	66.7%	76.4%			
OCc1c[nH]c2ccccc12 [Indole-3-carbinol] + COc1ccc2c(c1)CCC1C2CCC2(C)C(NCCCCCCN3C(=O)C=CC3=O)CCC12 [U73122] (first compound 0.8 µM, partner dose 0.4 µM)	40.5%	9.46%	105%	40.4%	122%	94.5%	79.5%	97.5%	99.7%	21.6%	116%	107%	156%	66%	32.8%	73.5%			
CC(=O)c1c(C)c2cnc(Nc3ccc(N4CCNCC4)cn3)nc2n(C2CCCC2)c1=O [palbociclib] + N#Cc1c(O)c2c(-c3ccc(-c4ccccc4O)cc3)csc2[nH]c1=O [A769662] (first compound 0.04 µM, partner dose 2 µM)	183%	99.6%	28.9%	400%	107%	103%	55%	67%	59.6%	106%	244%	66.7%	54.7%	70.7%	107%	145%			
OCc1c[nH]c2ccccc12 [Indole-3-carbinol] + c1cc(-c2cnn3cc(-c4ccc(OCCN5CCCCC5)cc4)cnc23)ccn1 [Dorsomorphin] (first compound 0.8 µM, partner dose 0.4 µM)	96.8%	23.8%	203%	99.4%	72.2%	120%	71.1%	81.7%	94.7%	130%	98.4%	107%	58.4%	148%	134%	48.7%			
OCc1c[nH]c2ccccc12 [Indole-3-carbinol] + O=c1cc(-c2cccc3c2Sc2ccccc2S3)oc(N2CCOCC2)c1 [KU55933] (first compound 0.8 µM, partner dose 1 µM)	134%	19.9%	31.9%	31%	44.3%	43.6%	98.3%	92.2%	104%	194%	23%	145%	28%	127%	33.3%	87%			
OCc1c[nH]c2ccccc12 [Indole-3-carbinol] + CCc1ccc(CCOc2ccc(CC3SC(=O)NC3=O)cc2)nc1 [pioglitazone] (first compound 0.8 µM, partner dose 2 µM)	81.4%	41.5%	127%	280%	129%	99.5%	181%	88.9%	46.7%	225%	39.8%	84.8%	130%	70.8%	39.3%	104%			
Cc1nc(Nc2ncc(C(=O)Nc3c(C)cccc3Cl)s2)cc(N2CCN(CCO)CC2)n1 [dasatanib] + CN(C)S(=O)(=O)c1ccc2c(c1)/C(=C/c1cc3c([nH]1)CCCC3)C(=O)N2 [SU6656] (first compound 0.004 µM, partner dose 0.4 µM)		113%	87.7%	391%	64.1%	121%	34.3%	96.7%	247%	53.5%	76.1%	157%	97.1%	61.8%		211%	68.2%	111%	79.2%
C=CCNC1=C2C[C@@H](C)C[C@H](OC)[C@H](O)[C@@H](C)/C=C(\C)[C@H](OC(N)=O)[C@@H](OC)/C=C\C=C(/C)C(=O)NC(=CC1=O)C2=O [Tanespimycin] + COc1cc2ncnc(Nc3ccc(Oc4ccccc4)cc3)c2cc1OC [SrcI1] (first compound 0.002 µM, partner dose 2 µM)	53%	35.7%	36.9%	29.5%	265%	92.3%	90.7%	95.2%	67.4%	47.4%	52.8%	74.7%	145%	217%	57%	274%			
C=CCNC1=C2C[C@@H](C)C[C@H](OC)[C@H](O)[C@@H](C)/C=C(\C)[C@H](OC(N)=O)[C@@H](OC)/C=C\C=C(/C)C(=O)NC(=CC1=O)C2=O [Tanespimycin] + Oc1nc(-c2ccc(C(F)(F)F)cc2)nc2c1CSCC2 [XAV939] (first compound 0.002 µM, partner dose 2 µM)	67.2%	22.9%	479%	99.1%	67%	112%	79.7%	63%	76.2%	81.4%	84.2%	111%	158%	117%	73.2%	110%			
C=CCNC1=C2C[C@@H](C)C[C@H](OC)[C@H](O)[C@@H](C)/C=C(\C)[C@H](OC(N)=O)[C@@H](OC)/C=C\C=C(/C)C(=O)NC(=CC1=O)C2=O [Tanespimycin] + Oc1cc(-c2nc(-c3ccccc3)[nH]c2-c2ccncc2)ccc1Cl [L779450] (first compound 0.002 µM, partner dose 0.2 µM)	94.4%		115%	275%	292%	115%	33.9%	173%	91.8%	54.4%	243%	134%	43.5%	136%	143%	120%			

Two entries picked at random from the list so far:
SMILES	cleaved PARP positive nuclei fraction (501Mel)	cleaved PARP positive nuclei fraction (A101D)	cleaved PARP positive nuclei fraction (A2058)	cleaved PARP positive nuclei fraction (C32)	cleaved PARP positive nuclei fraction (CBRC008)	cleaved PARP positive nuclei fraction (CBRC014)	cleaved PARP positive nuclei fraction (CBRC016)	cleaved PARP positive nuclei fraction (CBRC017)	cleaved PARP positive nuclei fraction (COLO792)	cleaved PARP positive nuclei fraction (COLO800)	cleaved PARP positive nuclei fraction (COLO829)	cleaved PARP positive nuclei fraction (G361)	cleaved PARP positive nuclei fraction (IPC-298)	cleaved PARP positive nuclei fraction (IST-MEL1)	cleaved PARP positive nuclei fraction (LB2518-MEL)	cleaved PARP positive nuclei fraction (LOXIMVI)	cleaved PARP positive nuclei fraction (A375)	cleaved PARP positive nuclei fraction (CBRC013)	cleaved PARP positive nuclei fraction (MEL-HO)
CC(=O)c1c(C)c2cnc(Nc3ccc(N4CCNCC4)cn3)nc2n(C2CCCC2)c1=O [palbociclib] + N#Cc1c(O)c2c(-c3ccc(-c4ccccc4O)cc3)csc2[nH]c1=O [A769662] (first compound 0.04 µM, partner dose 2 µM)	183%	99.6%	28.9%	400%	107%	103%	55%	67%	59.6%	106%	244%	66.7%	54.7%	70.7%	107%	145%			
OCc1c[nH]c2ccccc12 [Indole-3-carbinol] + COc1ccc2c(c1)CCC1C2CCC2(C)C(NCCCCCCN3C(=O)C=CC3=O)CCC12 [U73122] (first compound 0.8 µM, partner dose 0.4 µM)	40.5%	9.46%	105%	40.4%	122%	94.5%	79.5%	97.5%	99.7%	21.6%	116%	107%	156%	66%	32.8%	73.5%			
